The record followed here is article doi:10.1101/2022.02.25.481063.

The test concerns the target T1, human TREX1(1-242) wild-type protomer (human) (UniProt Q9NSU2).
T1 sequence: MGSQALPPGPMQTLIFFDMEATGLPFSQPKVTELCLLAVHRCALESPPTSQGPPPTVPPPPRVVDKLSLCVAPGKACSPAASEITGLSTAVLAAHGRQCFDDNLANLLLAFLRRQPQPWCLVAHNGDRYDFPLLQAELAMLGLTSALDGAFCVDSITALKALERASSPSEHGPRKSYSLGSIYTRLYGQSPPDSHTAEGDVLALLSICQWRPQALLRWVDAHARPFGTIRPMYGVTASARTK
Put plainly: sequential affinity co-purification.

Results are given in words; binding and its absence hold for the method and conditions named. Some entries that bind do so weakly or less than the wild type.

B1: human TREX1(1-242) D18N mutant protomer (enzyme, UniProt Q9NSU2-3 1-242)
chain: MGSQALPPGPMQTLIFFNMEATGLPFSQPKVTELCLLAVHRCALESPPTSQGPPPTVPPPPRVVDKLSLCVAPGKACSPAASEITGLSTAVLAAHGRQCFDDNLANLLLAFLRRQPQPWCLVAHNGDRYDFPLLQAELAMLGLTSALDGAFCVDSITALKALERASSPSEHGPRKSYSLGSIYTRLYGQSPPDSHTAEGDVLALLSICQWRPQALLRWVDAHARPFGTIRPMYGVTASARTK
Regarding B1, the binding result is recorded as “binds”.
